Here are results for seven molecules from US11065203B2, “Liposomal compositions and uses of same” (Technion Research & Development Foundation Limited, priority 2009, dated 2021).

This data set in a line: Proteomics analysis (trypsin digest, LC-MS/MS) of hMSC ghosts and derived CDLs, conditioned or unconditioned by PC3 medium. More on the design: species or system human. To be noted: LC-MS/MS peak area per protein; for Ratio of expression Cond. CDLs/Cond. Ghosts: CDLs derived from conditioned hMSCs versus conditioned ghosts; for Ratio of expression Cond Ghosts/Ghosts: hMSC ghosts conditioned by PC3 medium versus unconditioned ghosts.

B1: Q9Y3I0 (protein, UniProt Q9Y3I0 1-505, looked up)
chain: MSRSYNDELQFLEKINKNCWRIKKGFVPNMQVEGVFYVNDALEKLMFEELRNACRGGGVGGFLPAMKQIGNVAALPGIVHRSIGLPDVHSGYGFAIGNMAAFDMNDPEAVVSPGGVGFDINCGVRLLRTNLDESDVQPVKEQLAQAMFDHIPVGVGSKGVIPMNAKDLEEALEMGVDWSLREGYAWAEDKEHCEEYGRMLQADPNKVSARAKKRGLPQLGTLGAGNHYAEIQVVDEIFNEYAAKKMGIDHKGQVCVMIHSGSRGLGHQVATDALVAMEKAMKRDKIIVNDRQLACARIASPEGQDYLKGMAAAGNYAWVNRSSMTFLTRQAFAKVFNTTPDDLDLHVIYDVSHNIAKVEQHVVDGKERTLLVHRKGSTRAFPPHHPLIAVDYQLTGQPVLIGGTMGTCSYVLTGTEQGMTETFGTTCHGAGRALSRAKSRRNLDFQDVLDKLADMGIAIRVASPKLVMEEAPESYKNVTDVVNTCHDAGISKKAIKLRPIAVIKG
modifications: full-length
With B1, the “Ratio of expression Cond. CDLs/Cond. Ghosts” value amounted to 8% and the “Ratio of expression Cond Ghosts/Ghosts” value amounted to 72%.

B2: P12814 (protein, UniProt P12814 1-892, looked up)
chain: MDHYDSQQTNDYMQPEEDWDRDLLLDPAWEKQQRKTFTAWCNSHLRKAGTQIENIEEDFRDGLKLMLLLEVISGERLAKPERGKMRVHKISNVNKALDFIASKGVKLVSIGAEEIVDGNVKMTLGMIWTIILRFAIQDISVEETSAKEGLLLWCQRKTAPYKNVNIQNFHISWKDGLGFCALIHRHRPELIDYGKLRKDDPLTNLNTAFDVAEKYLDIPKMLDAEDIVGTARPDEKAIMTYVSSFYHAFSGAQKAETAANRICKVLAVNQENEQLMEDYEKLASDLLEWIRRTIPWLENRVPENTMHAMQQKLEDFRDYRRLHKPPKVQEKCQLEINFNTLQTKLRLSNRPAFMPSEGRMVSDINNAWGCLEQVEKGYEEWLLNEIRRLERLDHLAEKFRQKASIHEAWTDGKEAMLRQKDYETATLSEIKALLKKHEAFESDLAAHQDRVEQIAAIAQELNELDYYDSPSVNARCQKICDQWDNLGALTQKRREALERTEKLLETIDQLYLEYAKRAAPFNNWMEGAMEDLQDTFIVHTIEEIQGLTTAHEQFKATLPDADKERLAILGIHNEVSKIVQTYHVNMAGTNPYTTITPQEINGKWDHVRQLVPRRDQALTEEHARQQHNERLRKQFGAQANVIGPWIQTKMEEIGRISIEMHGTLEDQLSHLRQYEKSIVNYKPKIDQLEGDHQLIQEALIFDNKHTNYTMEHIRVGWEQLLTTIARTINEVENQILTRDAKGISQEQMNEFRASFNHFDRDHSGTLGPEEFKACLISLGYDIGNDPQGEAEFARIMSIVDPNRLGVVTFQAFIDFMSRETADTDTADQVMASFKILAGDKNYITMDELRRELPPDQAEYCIARMAPYTGPDSVPGALDYMSFSTALYGESDL
modifications: full-length
On to B2, for which the “Ratio of expression Cond. CDLs/Cond. Ghosts” value is listed as 4% and the “Ratio of expression Cond Ghosts/Ghosts” value worked out at 70%.

B3: P49419 (protein, UniProt P49419 1-539, looked up)
chain: MWRLPRALCVHAAKTSKLSGPWSRPAAFMSTLLINQPQYAWLKELGLREENEGVYNGSWGGRGEVITTYCPANNEPIARVRQASVADYEETVKKAREAWKIWADIPAPKRGEIVRQIGDALREKIQVLGSLVSLEMGKILVEGVGEVQEYVDICDYAVGLSRMIGGPILPSERSGHALIEQWNPVGLVGIITAFNFPVAVYGWNNAIAMICGNVCLWKGAPTTSLISVAVTKIIAKVLEDNKLPGAICSLTCGGADIGTAMAKDERVNLLSFTGSTQVGKQVGLMVQERFGRSLLELGGNNAIIAFEDADLSLVVPSALFAAVGTAGQRCTTARRLFIHESIHDEVVNRLKKAYAQIRVGNPWDPNVLYGPLHTKQAVSMFLGAVEEAKKEGGTVVYGGKVMDRPGNYVEPTIVTGLGHDASIAHTETFAPILYVFKFKNEEEVFAWNNEVKQGLSSSIFTKDLGRIFRWLGPKGSDCGIVNVNIPTSGAEIGGAFGGEKHTGGGRESGSDAWKQYMRRSTCTINYSKDLPLAQGIKFQ
modifications: full-length
With B3, the “Ratio of expression Cond. CDLs/Cond. Ghosts” value is 3% and the “Ratio of expression Cond Ghosts/Ghosts” value came to 66%.

B4: Q969X5 (protein, UniProt Q969X5 1-290, looked up)
chain: MPFDFRRFDIYRKVPKDLTQPTYTGAIISICCCLFILFLFLSELTGFITTEVVNELYVDDPDKDSGGKIDVSLNISLPNLHCELVGLDIQDEMGRHEVGHIDNSMKIPLNNGAGCRFEGQFSINKVPGNFHVSTHSATAQPQNPDMTHVIHKLSFGDTLQVQNIHGAFNALGGADRLTSNPLASHDYILKIVPTVYEDKSGKQRYSYQYTVANKEYVAYSHTGRIIPAIWFRYDLSPITVKYTERRQPLYRFITTICAIIGGTFTVAGILDSCIFTASEAWKKIQLGKMH
modifications: full-length
B4: the “Ratio of expression Cond. CDLs/Cond. Ghosts” value is listed as 8% and the “Ratio of expression Cond Ghosts/Ghosts” value is 186%.

B5: P12110 (protein, UniProt P12110 1-1019, looked up)
chain: MLQGTCSVLLLWGILGAIQAQQQEVISPDTTERNNNCPEKTDCPIHVYFVLDTSESVTMQSPTDILLFHMKQFVPQFISQLQNEFYLDQVALSWRYGGLHFSDQVEVFSPPGSDRASFIKNLQGISSFRRGTFTDCALANMTEQIRQDRSKGTVHFAVVITDGHVTGSPCGGIKLQAERAREEGIRLFAVAPNQNLKEQGLRDIASTPHELYRNDYATMLPDSTEIDQDTINRIIKVMKHEAYGECYKVSCLEIPGPSGPKGYRGQKGAKGNMGEPGEPGQKGRQGDPGIEGPIGFPGPKGVPGFKGEKGEFGADGRKGAPGLAGKNGTDGQKGKLGRIGPPGCKGDPGNRGPDGYPGEAGSPGERGDQGGKGDPGRPGRRGPPGEIGAKGSKGYQGNSGAPGSPGVKGAKGGPGPRGPKGEPGRRGDPGTKGSPGSDGPKGEKGDPGPEGPRGLAGEVGNKGAKGDRGLPGPRGPQGALGEPGKQGSRGDPGDAGPRGDSGQPGPKGDPGRPGFSYPGPRGAPGEKGEPGPRGPEGGRGDFGLKGEPGRKGEKGEPADPGPPGEPGPRGPRGVPGPEGEPGPPGDPGLTECDVMTYVRETCGCCDCEKRCGALDVVFVIDSSESIGYTNFTLEKNFVINVVNRLGAIAKDPKSETGTRVGVVQYSHEGTFEAIQLDDERIDSLSSFKEAVKNLEWIAGGTWTPSALKFAYDRLIKESRRQKTRVFAVVITDGRHDPRDDDLNLRALCDRDVTVTAIGIGDMFHEKHESENLYSIACDKPQQVRNMTLFSDLVAEKFIDDMEDVLCPDPQIVCPDLPCQTELSVAQCTQRPVDIVFLLDGSERLGEQNFHKARRFVEQVARRLTLARRDDDPLNARVALLQFGGPGEQQVAFPLSHNLTAIHEALETTQYLNSFSHVGAGVVHAINAIVRSPRGGARRHAELSFVFLTDGVTGNDSLHESAHSMRKQNVVPTVLALGSDVDMDVLTTLSLGDRAAVFHEKDYDSLAQPGFFDRFIRWIC
modifications: full-length
As to B5, the “Ratio of expression Cond. CDLs/Cond. Ghosts” value was determined as 3% and the “Ratio of expression Cond Ghosts/Ghosts” value is given as 81%.

B6: P55145 (protein, UniProt P55145 1-182, looked up)
chain: MRRMWATQGLAVALALSVLPGSRALRPGDCEVCISYLGRFYQDLKDRDVTFSPATIENELIKFCREARGKENRLCYYIGATDDAATKIINEVSKPLAHHIPVEKICEKLKKKDSQICELKYDKQIDLSTVDLKKLRVKELKKILDDWGETCKGCAEKSDYIRKINELMPKYAPKAASARTDL
modifications: full-length
For the molecule B6, the “Ratio of expression Cond. CDLs/Cond. Ghosts” value is reported as 2% and the “Ratio of expression Cond Ghosts/Ghosts” value came to 71%.

B7: P42765 (protein, UniProt P42765 1-397, looked up)
chain: MALLRGVFVVAAKRTPFGAYGGLLKDFTATDLSEFAAKAALSAGKVSPETVDSVIMGNVLQSSSDAIYLARHVGLRVGIPKETPALTINRLCGSGFQSIVNGCQEICVKEAEVVLCGGTESMSQAPYCVRNVRFGTKLGSDIKLEDSLWVSLTDQHVQLPMAMTAENLAVKHKISREECDKYALQSQQRWKAANDAGYFNDEMAPIEVKTKKGKQTMQVDEHARPQTTLEQLQKLPPVFKKDGTVTAGNASGVADGAGAVIIASEDAVKKHNFTPLARIVGYFVSGCDPSIMGIGPVPAISGALKKAGLSLKDMDLVEVNEAFAPQYLAVERSLDLDISKTNVNGGAIALGHPLGGSGSRITAHLVHELRRRGGKYAVGSACIGGGQGIAVIIQSTA
modifications: full-length
Consider B7, for which the “Ratio of expression Cond. CDLs/Cond. Ghosts” value came to 2% and the “Ratio of expression Cond Ghosts/Ghosts” value was 79%.
